Here are results for two substances from article PMC4775220.

The chains behind the UniProt entries cited, without tags or fusion partners.
UniProt Q9UBL3: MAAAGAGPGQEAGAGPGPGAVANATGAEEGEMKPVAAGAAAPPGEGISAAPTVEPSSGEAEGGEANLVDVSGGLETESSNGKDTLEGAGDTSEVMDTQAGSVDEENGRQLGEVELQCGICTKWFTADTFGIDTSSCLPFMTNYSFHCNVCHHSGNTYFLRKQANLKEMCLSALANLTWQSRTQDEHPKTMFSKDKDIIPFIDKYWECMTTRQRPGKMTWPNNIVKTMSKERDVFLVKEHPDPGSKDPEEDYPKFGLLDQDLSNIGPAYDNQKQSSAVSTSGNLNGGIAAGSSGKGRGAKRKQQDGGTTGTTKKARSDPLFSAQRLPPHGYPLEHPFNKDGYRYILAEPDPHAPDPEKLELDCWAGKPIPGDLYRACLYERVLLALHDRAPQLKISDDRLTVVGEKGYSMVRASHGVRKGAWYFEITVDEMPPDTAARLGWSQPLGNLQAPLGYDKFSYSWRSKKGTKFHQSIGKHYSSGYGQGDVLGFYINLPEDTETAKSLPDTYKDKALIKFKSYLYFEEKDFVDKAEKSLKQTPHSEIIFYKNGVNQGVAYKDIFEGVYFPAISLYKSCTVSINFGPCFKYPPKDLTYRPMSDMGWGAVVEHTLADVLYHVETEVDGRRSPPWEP
UniProt O75533: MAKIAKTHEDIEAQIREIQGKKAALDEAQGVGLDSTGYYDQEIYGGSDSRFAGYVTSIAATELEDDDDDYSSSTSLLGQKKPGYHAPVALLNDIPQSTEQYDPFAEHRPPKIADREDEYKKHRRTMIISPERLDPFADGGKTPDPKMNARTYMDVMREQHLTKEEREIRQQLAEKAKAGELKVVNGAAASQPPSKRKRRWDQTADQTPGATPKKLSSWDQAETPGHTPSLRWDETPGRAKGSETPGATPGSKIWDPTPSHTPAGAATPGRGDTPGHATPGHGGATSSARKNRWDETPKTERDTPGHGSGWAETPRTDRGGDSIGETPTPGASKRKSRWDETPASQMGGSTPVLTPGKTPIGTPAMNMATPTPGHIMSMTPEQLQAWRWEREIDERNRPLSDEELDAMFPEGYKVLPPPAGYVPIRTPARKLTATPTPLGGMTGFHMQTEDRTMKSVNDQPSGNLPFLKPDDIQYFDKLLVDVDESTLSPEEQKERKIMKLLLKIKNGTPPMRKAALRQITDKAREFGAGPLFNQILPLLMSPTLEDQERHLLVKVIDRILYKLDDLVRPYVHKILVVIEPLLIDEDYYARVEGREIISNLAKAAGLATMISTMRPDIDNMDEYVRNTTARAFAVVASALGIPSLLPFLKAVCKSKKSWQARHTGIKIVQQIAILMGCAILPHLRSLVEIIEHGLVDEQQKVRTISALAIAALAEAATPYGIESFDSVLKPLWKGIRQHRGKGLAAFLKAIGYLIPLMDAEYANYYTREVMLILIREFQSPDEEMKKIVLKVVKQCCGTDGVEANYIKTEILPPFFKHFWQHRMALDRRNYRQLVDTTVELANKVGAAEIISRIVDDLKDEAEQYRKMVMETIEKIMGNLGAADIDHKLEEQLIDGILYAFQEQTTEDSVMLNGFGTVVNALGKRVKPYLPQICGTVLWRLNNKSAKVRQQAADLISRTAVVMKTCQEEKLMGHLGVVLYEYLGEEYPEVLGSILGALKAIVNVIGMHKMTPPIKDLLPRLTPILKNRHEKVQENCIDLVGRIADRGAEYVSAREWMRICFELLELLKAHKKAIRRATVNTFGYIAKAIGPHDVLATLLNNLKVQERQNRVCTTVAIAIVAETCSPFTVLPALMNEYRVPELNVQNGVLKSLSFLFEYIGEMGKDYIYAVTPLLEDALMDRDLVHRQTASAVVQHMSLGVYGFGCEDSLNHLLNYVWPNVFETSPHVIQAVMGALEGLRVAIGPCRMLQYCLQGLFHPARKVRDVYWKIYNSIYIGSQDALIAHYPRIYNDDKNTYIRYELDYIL

These are yes or no findings as the source states them, for the method shown. Binding seen in cells or lysates may run through a third protein. A yes stands for co-enrichment or nearness to the bait. Other partners may have been found.

For this assay, the target named is T1, RBM15, endogenous in 293T cells (bait of the affinity purification) (human (endogenous in 293T)) (UniProt Q96T37).
T1 sequence: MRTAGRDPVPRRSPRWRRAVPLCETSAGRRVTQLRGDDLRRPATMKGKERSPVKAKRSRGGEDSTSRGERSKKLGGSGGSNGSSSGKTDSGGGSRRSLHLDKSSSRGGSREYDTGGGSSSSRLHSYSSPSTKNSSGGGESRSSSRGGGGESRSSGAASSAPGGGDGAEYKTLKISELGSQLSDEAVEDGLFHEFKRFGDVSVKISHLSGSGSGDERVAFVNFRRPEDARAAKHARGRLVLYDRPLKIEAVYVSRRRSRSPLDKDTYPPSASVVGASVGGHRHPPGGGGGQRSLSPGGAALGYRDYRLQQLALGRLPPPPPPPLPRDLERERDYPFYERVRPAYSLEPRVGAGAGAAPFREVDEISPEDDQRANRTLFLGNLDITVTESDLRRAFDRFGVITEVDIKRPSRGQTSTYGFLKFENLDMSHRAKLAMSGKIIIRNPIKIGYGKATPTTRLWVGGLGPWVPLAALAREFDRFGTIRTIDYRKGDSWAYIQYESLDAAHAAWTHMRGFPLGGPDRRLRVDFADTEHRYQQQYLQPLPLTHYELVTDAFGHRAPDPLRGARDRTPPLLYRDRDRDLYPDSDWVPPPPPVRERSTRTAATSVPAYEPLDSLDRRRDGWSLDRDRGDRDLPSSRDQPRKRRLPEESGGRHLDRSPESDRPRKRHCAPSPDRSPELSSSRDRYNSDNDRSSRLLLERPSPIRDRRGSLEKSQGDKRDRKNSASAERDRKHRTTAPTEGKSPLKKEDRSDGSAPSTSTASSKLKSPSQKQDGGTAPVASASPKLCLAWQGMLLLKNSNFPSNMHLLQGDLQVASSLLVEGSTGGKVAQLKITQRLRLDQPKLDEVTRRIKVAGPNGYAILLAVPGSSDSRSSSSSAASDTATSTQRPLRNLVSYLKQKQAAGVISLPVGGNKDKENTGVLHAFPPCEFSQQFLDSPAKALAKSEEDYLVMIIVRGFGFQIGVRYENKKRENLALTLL
Nature of the assay: affinity purification with mass spectrometry; RBM15-associated proteins affinity purified from 293T cells, which express endogenous RBM15; mass spectrometry.

Consider ASH2 (from UniProt Q9UBL3 1-628), for which the binding entry was “binds”.
Then “SF3B1, endogenous in 293T cells (from UniProt O75533 1-1304)”, with “binds”.
